Experimental data as given in the supplement of paper PMC10849652.
The list shows a part of the results.

By UniProt entry, the sequences of proteins in these tests, tags left out. Where a name states a change or a piece, a line headed by the entry shows the natural chain unless it says otherwise.
UniProt O76080: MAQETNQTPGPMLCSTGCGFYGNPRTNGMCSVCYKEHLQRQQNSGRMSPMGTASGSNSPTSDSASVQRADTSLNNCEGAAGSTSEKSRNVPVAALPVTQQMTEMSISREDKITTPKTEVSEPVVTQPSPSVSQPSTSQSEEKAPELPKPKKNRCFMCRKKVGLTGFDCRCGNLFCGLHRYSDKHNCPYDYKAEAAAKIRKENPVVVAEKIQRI
UniProt P17028: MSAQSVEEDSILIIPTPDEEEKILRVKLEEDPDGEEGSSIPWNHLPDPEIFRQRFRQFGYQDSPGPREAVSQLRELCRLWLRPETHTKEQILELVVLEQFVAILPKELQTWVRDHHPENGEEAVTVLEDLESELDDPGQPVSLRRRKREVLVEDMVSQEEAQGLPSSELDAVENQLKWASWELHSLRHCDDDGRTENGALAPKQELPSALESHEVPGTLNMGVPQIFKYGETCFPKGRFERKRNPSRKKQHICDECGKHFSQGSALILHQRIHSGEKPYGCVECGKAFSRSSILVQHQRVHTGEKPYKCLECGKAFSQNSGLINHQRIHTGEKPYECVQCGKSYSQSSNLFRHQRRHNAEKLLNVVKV
UniProt Q14202: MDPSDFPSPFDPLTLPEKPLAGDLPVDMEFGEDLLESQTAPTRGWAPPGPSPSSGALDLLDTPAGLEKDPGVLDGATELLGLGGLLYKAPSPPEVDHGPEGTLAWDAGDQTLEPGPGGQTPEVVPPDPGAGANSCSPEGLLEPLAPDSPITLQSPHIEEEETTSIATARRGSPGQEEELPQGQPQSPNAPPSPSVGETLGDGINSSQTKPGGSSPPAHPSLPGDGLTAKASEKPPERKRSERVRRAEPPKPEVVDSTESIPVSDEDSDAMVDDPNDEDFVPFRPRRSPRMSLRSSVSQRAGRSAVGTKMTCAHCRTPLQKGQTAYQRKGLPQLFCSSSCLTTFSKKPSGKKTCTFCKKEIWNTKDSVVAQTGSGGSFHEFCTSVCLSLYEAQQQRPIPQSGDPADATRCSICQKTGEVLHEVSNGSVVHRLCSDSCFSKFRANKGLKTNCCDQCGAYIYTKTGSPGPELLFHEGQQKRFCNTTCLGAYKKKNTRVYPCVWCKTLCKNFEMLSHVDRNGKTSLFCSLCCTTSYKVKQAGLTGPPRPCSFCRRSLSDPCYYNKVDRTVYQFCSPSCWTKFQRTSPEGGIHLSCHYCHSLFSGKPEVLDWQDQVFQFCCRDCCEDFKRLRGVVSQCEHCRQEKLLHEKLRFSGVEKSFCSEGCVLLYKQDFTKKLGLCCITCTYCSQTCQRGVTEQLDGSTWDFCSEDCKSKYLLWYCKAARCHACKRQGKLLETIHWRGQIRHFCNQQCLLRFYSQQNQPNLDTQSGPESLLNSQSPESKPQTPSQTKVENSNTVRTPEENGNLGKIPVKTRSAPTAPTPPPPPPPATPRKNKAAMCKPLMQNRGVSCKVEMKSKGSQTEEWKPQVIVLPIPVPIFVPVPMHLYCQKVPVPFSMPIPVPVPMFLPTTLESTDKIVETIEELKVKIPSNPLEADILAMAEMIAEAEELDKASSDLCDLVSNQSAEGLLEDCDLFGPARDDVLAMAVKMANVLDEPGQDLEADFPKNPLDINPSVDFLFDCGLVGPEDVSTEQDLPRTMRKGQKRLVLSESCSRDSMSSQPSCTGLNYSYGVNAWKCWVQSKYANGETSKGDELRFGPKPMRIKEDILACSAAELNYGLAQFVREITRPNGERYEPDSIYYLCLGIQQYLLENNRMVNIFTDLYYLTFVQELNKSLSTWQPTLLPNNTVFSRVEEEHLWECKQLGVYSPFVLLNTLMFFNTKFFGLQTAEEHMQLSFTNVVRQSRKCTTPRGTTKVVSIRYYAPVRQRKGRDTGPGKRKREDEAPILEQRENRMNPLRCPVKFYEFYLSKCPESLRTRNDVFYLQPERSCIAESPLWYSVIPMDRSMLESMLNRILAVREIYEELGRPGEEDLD
UniProt Q96NC0: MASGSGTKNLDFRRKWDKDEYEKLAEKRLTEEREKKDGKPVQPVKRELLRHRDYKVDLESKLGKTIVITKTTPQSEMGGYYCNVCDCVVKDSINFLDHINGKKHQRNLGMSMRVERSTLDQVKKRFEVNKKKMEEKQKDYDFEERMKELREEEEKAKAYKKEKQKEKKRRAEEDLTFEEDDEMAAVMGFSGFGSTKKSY
UniProt P54577: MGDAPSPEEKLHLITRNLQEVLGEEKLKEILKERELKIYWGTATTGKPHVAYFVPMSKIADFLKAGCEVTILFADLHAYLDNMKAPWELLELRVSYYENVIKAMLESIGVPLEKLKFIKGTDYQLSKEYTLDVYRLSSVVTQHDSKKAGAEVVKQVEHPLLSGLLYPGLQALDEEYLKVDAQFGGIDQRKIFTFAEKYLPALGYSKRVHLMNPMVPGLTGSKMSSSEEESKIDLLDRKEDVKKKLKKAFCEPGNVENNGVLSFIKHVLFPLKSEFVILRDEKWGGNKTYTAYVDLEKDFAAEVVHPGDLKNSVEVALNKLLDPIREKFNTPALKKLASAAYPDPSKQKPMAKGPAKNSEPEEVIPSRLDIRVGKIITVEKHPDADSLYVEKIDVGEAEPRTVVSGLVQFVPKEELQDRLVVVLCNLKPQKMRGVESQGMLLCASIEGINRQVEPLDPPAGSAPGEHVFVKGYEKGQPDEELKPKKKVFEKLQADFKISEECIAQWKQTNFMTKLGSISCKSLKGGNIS
UniProt Q9BSR8: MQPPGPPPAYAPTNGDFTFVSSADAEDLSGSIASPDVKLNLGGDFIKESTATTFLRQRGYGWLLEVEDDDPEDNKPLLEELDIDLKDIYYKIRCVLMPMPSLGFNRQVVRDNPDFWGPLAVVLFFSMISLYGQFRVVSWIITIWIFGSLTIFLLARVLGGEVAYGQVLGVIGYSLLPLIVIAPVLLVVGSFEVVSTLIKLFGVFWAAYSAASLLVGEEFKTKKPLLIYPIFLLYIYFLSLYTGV
UniProt Q96JP5: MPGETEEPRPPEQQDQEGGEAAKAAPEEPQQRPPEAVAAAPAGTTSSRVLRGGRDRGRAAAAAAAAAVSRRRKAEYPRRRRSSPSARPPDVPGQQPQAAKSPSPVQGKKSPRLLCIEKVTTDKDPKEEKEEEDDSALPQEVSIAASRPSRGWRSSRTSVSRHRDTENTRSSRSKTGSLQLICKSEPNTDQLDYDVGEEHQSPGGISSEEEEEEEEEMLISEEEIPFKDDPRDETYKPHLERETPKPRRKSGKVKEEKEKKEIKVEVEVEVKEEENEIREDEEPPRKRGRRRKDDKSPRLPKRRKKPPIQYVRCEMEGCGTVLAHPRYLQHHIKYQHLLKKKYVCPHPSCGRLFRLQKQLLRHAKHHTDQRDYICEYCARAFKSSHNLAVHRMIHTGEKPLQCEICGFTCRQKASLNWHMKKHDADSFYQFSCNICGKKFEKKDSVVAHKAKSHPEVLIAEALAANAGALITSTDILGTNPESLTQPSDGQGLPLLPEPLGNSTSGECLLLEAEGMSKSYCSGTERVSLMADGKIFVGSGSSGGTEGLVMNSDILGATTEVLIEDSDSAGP
UniProt P25490, whole entry, looked up: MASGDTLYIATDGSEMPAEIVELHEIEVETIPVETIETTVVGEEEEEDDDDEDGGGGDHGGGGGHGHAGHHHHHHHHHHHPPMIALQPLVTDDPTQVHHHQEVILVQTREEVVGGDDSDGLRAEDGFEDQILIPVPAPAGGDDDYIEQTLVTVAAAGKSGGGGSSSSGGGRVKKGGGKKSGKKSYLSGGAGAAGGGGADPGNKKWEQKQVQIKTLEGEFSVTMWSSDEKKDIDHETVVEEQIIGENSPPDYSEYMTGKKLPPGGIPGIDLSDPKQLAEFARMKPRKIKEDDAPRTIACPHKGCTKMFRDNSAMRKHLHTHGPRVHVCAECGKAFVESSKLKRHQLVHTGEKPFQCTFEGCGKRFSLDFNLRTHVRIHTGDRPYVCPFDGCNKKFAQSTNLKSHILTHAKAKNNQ
UniProt Q9NQH7: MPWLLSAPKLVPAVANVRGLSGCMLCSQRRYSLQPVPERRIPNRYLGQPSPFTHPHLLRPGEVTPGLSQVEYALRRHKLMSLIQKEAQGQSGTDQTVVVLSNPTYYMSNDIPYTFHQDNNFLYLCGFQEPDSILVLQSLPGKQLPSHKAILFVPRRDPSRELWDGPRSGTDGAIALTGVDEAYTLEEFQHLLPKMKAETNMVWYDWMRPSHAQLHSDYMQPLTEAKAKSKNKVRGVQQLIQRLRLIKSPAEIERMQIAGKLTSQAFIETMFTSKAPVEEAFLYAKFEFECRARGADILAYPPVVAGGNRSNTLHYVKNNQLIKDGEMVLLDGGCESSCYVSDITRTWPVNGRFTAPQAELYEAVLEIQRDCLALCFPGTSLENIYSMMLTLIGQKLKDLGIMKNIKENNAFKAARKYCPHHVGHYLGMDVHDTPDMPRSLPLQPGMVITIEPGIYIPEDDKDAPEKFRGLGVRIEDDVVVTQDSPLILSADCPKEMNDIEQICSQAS
UniProt Q8IUH5: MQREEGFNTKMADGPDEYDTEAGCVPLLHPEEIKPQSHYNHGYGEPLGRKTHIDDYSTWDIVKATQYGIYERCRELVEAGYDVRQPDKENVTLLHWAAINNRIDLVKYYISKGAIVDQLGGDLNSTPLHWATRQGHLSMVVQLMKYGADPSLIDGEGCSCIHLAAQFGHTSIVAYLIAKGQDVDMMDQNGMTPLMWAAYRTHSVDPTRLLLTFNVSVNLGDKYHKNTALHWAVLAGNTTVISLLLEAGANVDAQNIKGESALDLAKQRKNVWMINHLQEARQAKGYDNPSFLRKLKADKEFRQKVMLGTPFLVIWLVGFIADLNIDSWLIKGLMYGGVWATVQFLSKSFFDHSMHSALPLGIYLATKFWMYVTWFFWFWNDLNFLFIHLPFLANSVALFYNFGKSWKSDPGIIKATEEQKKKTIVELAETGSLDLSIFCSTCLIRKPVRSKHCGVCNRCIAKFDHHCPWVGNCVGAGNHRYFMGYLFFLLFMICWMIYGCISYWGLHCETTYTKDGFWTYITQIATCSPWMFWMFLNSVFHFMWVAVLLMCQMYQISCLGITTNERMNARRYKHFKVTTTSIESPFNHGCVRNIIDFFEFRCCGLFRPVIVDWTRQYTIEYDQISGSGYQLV
UniProt P31946: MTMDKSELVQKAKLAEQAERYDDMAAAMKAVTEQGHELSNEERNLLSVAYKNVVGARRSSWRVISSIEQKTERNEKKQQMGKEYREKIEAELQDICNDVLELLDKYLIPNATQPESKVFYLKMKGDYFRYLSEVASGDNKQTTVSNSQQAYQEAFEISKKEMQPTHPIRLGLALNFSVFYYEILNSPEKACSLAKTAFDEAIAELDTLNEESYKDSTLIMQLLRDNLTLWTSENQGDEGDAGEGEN
UniProt P52747: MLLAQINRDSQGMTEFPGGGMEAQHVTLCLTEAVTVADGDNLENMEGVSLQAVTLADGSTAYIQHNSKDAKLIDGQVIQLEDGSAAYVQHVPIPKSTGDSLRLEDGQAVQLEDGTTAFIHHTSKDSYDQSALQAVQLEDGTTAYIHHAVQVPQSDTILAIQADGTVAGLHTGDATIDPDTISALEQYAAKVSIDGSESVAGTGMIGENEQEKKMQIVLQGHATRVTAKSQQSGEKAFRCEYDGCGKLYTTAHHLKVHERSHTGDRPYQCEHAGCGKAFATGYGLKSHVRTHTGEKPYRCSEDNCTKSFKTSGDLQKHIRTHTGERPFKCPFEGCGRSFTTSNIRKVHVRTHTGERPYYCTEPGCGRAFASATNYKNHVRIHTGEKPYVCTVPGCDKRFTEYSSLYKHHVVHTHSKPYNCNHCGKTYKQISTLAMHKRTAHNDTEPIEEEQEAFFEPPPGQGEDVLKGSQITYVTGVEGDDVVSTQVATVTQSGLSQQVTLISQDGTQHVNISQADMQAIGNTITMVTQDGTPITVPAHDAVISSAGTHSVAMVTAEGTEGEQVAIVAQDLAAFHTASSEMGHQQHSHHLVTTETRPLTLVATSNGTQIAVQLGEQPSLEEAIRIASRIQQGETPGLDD
UniProt P67809, whole entry, looked up: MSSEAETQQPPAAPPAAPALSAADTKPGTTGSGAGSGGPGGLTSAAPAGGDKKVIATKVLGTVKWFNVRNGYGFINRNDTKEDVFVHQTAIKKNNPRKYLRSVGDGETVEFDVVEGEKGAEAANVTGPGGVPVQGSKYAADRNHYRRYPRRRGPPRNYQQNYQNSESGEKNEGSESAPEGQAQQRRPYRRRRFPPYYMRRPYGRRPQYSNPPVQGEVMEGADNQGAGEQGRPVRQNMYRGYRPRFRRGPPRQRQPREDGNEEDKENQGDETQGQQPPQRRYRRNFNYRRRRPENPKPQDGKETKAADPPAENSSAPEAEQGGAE
UniProt Q9NRH1: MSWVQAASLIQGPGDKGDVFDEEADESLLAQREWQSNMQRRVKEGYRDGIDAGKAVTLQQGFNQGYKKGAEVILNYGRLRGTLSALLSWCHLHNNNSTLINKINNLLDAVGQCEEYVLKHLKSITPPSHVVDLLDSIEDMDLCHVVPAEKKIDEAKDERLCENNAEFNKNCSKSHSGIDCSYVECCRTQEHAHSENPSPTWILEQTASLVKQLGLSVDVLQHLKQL

compound: CC1=NC(=CC=C1)C2=C(N=C(N2)C(C)(C)C)C3=CC4=NC=CN=C4C=C3; assay: log2 fold change, soluble protein after heating vs DMSO (PISA); higher = thermal stabilisation; K562 cells, 10 uM, 30 min; active = over 0.2 and 3.5 SD of the protein, either way, in both replicates (recomputed)
How it was run: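 Soluble protein was defined as the supernatant after 21,000xg for 90 min. It came from K562 cells at 2×10^6 cells/mL given 10 μM compound for 30 min, heated in aliquots for 3 min across 48°C-58°C, pooled, and extracted in PBS with 0.5% NP-40 at 4°C, and was quantified by TMTpro 16plex LC-MS/MS with equalised channel sums. Thermal stability against control samples, from duplicates, is reported as log2 fold change.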

Target | log2 fold change
YJU2 (UniProt Q9BW85) | inactive: 0.074
ZFAND5 (UniProt O76080) | inactive: 0.007
ZNF24 (UniProt P17028) | inactive: -0.053
ZFPL1 (UniProt O95159) | inactive: 0.032
ZMYM3 (UniProt Q14202) | inactive: -0.038
XRCC5 (UniProt P13010) | inactive: 0.143
ZMAT2 (UniProt Q96NC0) | inactive: 0.088
YARS (UniProt P54577) | inactive: -0.01
YIPF4 (UniProt Q9BSR8) | inactive: -0.067
ZFP91 (UniProt Q96JP5) | inactive: -0.069
XRCC6 (UniProt P12956) | inactive: 0.033
YY1 (UniProt P25490) | inactive: 0.039
ZFYVE9 (UniProt O95405) | inactive: 0.083
XPNPEP3 (UniProt Q9NQH7) | inactive: 0.017
ZFAND2B (UniProt Q8WV99) | inactive: -0.004
ZDHHC17 (UniProt Q8IUH5) | inactive: -0.095
YWHAB (UniProt P31946) | inactive: 0.021
XPO1 (UniProt O14980) | inactive: 0.081
ZNF143 (UniProt P52747) | inactive: 0.021
YBX1 (UniProt P67809) | inactive: -0.11
ZER1 (UniProt Q7Z7L7) | inactive: -0.248
ZDHHC14 (UniProt Q8IZN3) | inactive: -0.066
YWHAQ (UniProt P27348) | inactive: 0.05
YAE1 (UniProt Q9NRH1) | inactive: 0.019

Reformatted: entries from further up.
Target	log2 fold change
XRCC5 (UniProt P13010)	inactive: 0.143
YY1 (UniProt P25490)	inactive: 0.039
